In the supplement of paper PMC10398353:
“And” between values parts separate entries of the source, which are not always exact repeats. Equal entries are not always repeated. Structures can show the parent of a compound that is named as a salt. ± gives the standard deviation of the averaged measurements. The list shows a part of the results. Single values of this set are uncertain.

System: Salmonella enterica serovar Typhimurium ST313 D23580
Test: normalized bacterial growth (OD600 20 h minus 0 h, interquartile-mean normalized) (fraction of plate interquartile mean); higher = more bacterial growth (less inhibition)
Details: LPM (pH 5.8, low phosphate, low Mg2+), concentration: 10 µM, temperature: 37 °C

Row | SMILES | normalized bacterial growth
1 | CP(=O)(O)C1=CCNCC1 | 1.14
2 | C[C@@H]1O[C@H](C[N+](C)(C)C)C[C@H]1O [()-Muscarine chloride] | 0.951
3 | C[N+]1([O-])[C@@H]2CC(OC(=O)[C@H](CO)c3ccccc3)C[C@H]1[C@@H]1O[C@@H]12 (some centres undefined) | 1.05
4 | NC(CCCCCP(=O)(O)O)C(=O)O (centres undefined) [()-2-Amino-7-phosphonoheptanoic acid] | 1.01
5 | COC(=O)[C@@H](N)CCCNC(=N)N[N+](=O)[O-] [NG-Nitro-L-arginine methyl ester hydrochloride] | 0.916
6 | CN1CCc2cccc(Cl)c2CC1 | 0.982
7 | COc1c2c(cc3c1OCO3)CCN(C)C2 | 0.849 and 0.957
8 | C[C@]12CCC(=O)C[C@@H]1CC[C@@H]1[C@@H]2CC[C@]2(C)C(=O)CC[C@@H]12 ["5alpha-ANDROSTAN-3,17-DIONE"] | 1.03
9 | C[C@]12CC[C@H](O)C[C@H]1CC[C@@H]1[C@@H]2CC[C@]2(C)[C@@H](C3=CC(=O)OC3)[C@@H](O)C[C@]12O | 0.829 ± 0.11
10 | CC(=O)O[C@H]1C[C@@H]2CC[C@@H]3[C@H](CC[C@@]4(C)[C@H]3C[C@H]([N+]3(C)CCCCC3)[C@@H]4OC(C)=O)[C@@]2(C)C[C@@H]1[N+]1(C)CCCCC1 [Pancuronium bromide] | 0.869
11 | CC(=O)O[C@H]1C[C@@H]2CC[C@@H]3[C@H](CC[C@@]4(C)[C@H]3C[C@H]([N+]3(C)CCCCC3)[C@@H]4OC(C)=O)[C@@]2(C)C[C@@H]1[N+]1(C)CCCCC1 | 1.03
12 | CO[C@H]1[C@@H](O)[C@@H](C)O[C@H](O[C@H]2[C@H](Oc3cccc4c(O)c5c(=O)oc6ccc(C)c7c(=O)oc(c34)c5c67)O[C@H](C)[C@H](O)[C@@H]2O)[C@@H]1O | 0.922
13 | CNC(=O)CSP(=S)(OC)OC | 1.15
14 | CCSCC[C@H](N)C(=O)O | 1.04
15 | CCNc1nc(Cl)nc(NC(C)C)n1 | 1
16 | O=c1c2ccccc2[se]n1-c1ccccc1 [Ebselen] | 0.148
17 | CCCN(CCC)C1Cc2cc(OC)c(OC)cc2C1 | 1.18
18 | Cc1ccc(/N=C/N(C)/C=N/c2ccc(C)cc2C)c(C)c1 | 1.39
19 | N=C(NCCC[C@H](N)C(=O)O)N[N+](=O)[O-] [NG-Nitro-L-arginine] | 0.819
20 | C[C@]12CC[C@H]3[C@@H](CCC4=CC(=O)CC[C@@]43C)[C@@H]1CC[C@@H]2O | 1.07
21 | COc1cc2c3cc1Oc1c(OC)c(OC)cc4c1[C@@H](Cc1cccc(c1)Oc1ccc(c(O)c1)C[C@@H]3N(C)CC2)N(C)CC4 | 0.916
22 | O=c1ccc2cc(O[C@@H]3O[C@H](CO)[C@@H](O)[C@H](O)[C@H]3O)c(O)cc2o1 | 0.669 and 0.618
23 | O=c1ccc2cc(O[C@@H]3O[C@H](CO)[C@@H](O)[C@H](O)[C@H]3O)c(O)cc2o1 [Esculin Hydrate] | 1.17
24 | CC(C)NC(C)Cc1ccc(I)cc1 (centres undefined) [Iofetamine hydrochloride] | 0.992
25 | COC(=O)N1CCN(C(=O)Cc2ccc(Cl)c(Cl)c2)C(CN2CCCC2)C1 (centres undefined) | 1.03

Nothing new here: entries from further up.
Row | SMILES | normalized bacterial growth
2 | C[C@@H]1O[C@H](C[N+](C)(C)C)C[C@H]1O [()-Muscarine chloride] | 0.951
3 | C[N+]1([O-])[C@@H]2CC(OC(=O)[C@H](CO)c3ccccc3)C[C@H]1[C@@H]1O[C@@H]12 (some centres undefined) | 1.05

Carrying on.

Row | SMILES | normalized bacterial growth
26 | NCC(O)c1ccc(O)cc1 (centres undefined) [()-Octopamine hydrochloride] | 0.914
27 | CC[C@H]1CN2CCc3c([nH]c4ccccc34)[C@H]2C[C@@H]1/C(=C\OC)C(=O)OC | 0.865
28 | NCC#Cc1ccccc1 [3-Phenylpropargylamine hydrochloride] | 1.1
29 | CC(NC(C)(C)C)C(=O)c1cccc(Cl)c1 (centres undefined) [Bupropion hydrochloride] | 1.21
30 | N[C@]1(C(=O)O)CC[C@H](C(=O)O)C1 [trans-()-ACPD] | 1.28
31 | Oc1ccc2c3c1O[C@H]1c4[nH]c5ccccc5c4C[C@@]4(O)[C@@H](C2)N(CC2CC2)CC[C@]314 [Naltrindole hydrochloride] | 0.919
32 | CCN1C[C@]2(C)CC[C@H](O)[C@]34C1[C@@H](C[C@H]23)[C@@]1(O)C[C@H](OC)[C@H]2C[C@@H]4[C@@H]1[C@H]2O | 1.11
33 | CCN1C[C@]2(C)CC[C@H](O)[C@]34C1[C@@H](C[C@H]23)[C@@]1(O)C[C@H](OC)[C@H]2C[C@@H]4[C@@H]1[C@H]2O [Karakoline] | 0.977
34 | CC(=O)[C@H]1CC[C@H]2[C@@H]3CC[C@H]4C[C@H](O)CC[C@]4(C)[C@H]3CC[C@]12C [5alpha-Pregnan-3alpha-ol-20-one] | 0.787
35 | CC(=O)[C@H]1CC[C@H]2[C@@H]3CC[C@H]4C[C@H](O)CC[C@]4(C)[C@H]3CC[C@]12C | 1.1
36 | C=CCSSCC=C | 0.743
37 | CN1CC[C@@]2(C)c3cc(O)ccc3N(C)C12 (single isomer, unassigned; (-)) [(-)-Eseroline fumarate] | 1.12
38 | NCC(CC(=O)O)c1ccc(Cl)cc1 (centres undefined) [()-Baclofen] | 1.04
39 | CC(=O)O[C@H]1[C@H]2[C@@H](OC(=O)Cc3ccccc3)[C@@H](C)C[C@]2(OC(C)=O)C(=O)/C(C)=C/[C@@H]2[C@H](CC[C@@]13CO3)C2(C)C | 0.664 ± 0.039
40 | COc1ccc2c(c1O)-c1c(OC)c(OC)cc3c1[C@H](C2)N(C)CC3 | 0.918
41 | NC(=O)c1cc([N+](=O)[O-])cc([N+](=O)[O-])c1 | 1.09
42 | O=C1CC[C@@]2(O)[C@H]3Cc4ccc(O)c5c4[C@@]2(CCN3CC2CC2)[C@H]1O5 | 0.79
43 | O=C1CC[C@@]2(O)[C@H]3Cc4ccc(O)c5c4[C@@]2(CCN3CC2CC2)[C@H]1O5 [Naltrexone hydrochloride dihydrate] | 1.24
44 | O=C1CC[C@@]2(O)[C@H]3Cc4ccc(O)c5c4[C@@]2(CCN3CC2CC2)[C@H]1O5 [Naltrexone hydrochloride] | 1.09
45 | CC1=C2C(=O)[C@H]3[C@@H](CC=C4C[C@@H](O)CC[C@@]43C)[C@@H]2CC[C@]12O[C@@H]1C[C@H](C)CN[C@H]1[C@H]2C | 1.06
46 | C[C@@H]1Cc2c(Cl)cc(C(=O)N[C@@H](Cc3ccccc3)C(=O)O)c(O)c2C(=O)O1 | 1.13
47 | NC(CP(=O)(O)O)C(=O)O (centres undefined) [()-2-Amino-3-phosphonopropionic acid] | 1.01
48 | CN[C@@H]1[C@@H](O)[C@@H](O[C@@H]2[C@@H](O)[C@H](O[C@H]3O[C@H](CN)CC[C@H]3N)[C@@H](N)C[C@H]2N)OC[C@]1(C)O.CN[C@@H]1[C@@H](O)[C@@H](O[C@@H]2[C@@H](O)[C@H](O[C@H]3O[C@H]([C@@H](C)N)CC[C@H]3N)[C@@H](N)C[C@H]2N)OC[C@]1(C)O.CN[C@@H]1[C@@H](O)[C@@H](O[C@@H]2[C@@H](O)[C@H](O[C@H]3O[C@H]([C@@H](C)NC)CC[C@H]3N)[C@@H](N)C[C@H]2N)OC[C@]1(C)O [Gentamicine sulfate] | 0.84
49 | CN[C@@H]1[C@@H](O)[C@@H](O[C@@H]2[C@@H](O)[C@H](O[C@H]3O[C@H](CN)CC[C@H]3N)[C@@H](N)C[C@H]2N)OC[C@]1(C)O.CN[C@@H]1[C@@H](O)[C@@H](O[C@@H]2[C@@H](O)[C@H](O[C@H]3O[C@H]([C@@H](C)N)CC[C@H]3N)[C@@H](N)C[C@H]2N)OC[C@]1(C)O.CN[C@@H]1[C@@H](O)[C@@H](O[C@@H]2[C@@H](O)[C@H](O[C@H]3O[C@H]([C@@H](C)NC)CC[C@H]3N)[C@@H](N)C[C@H]2N)OC[C@]1(C)O | 1.09
